Data from patent publication US20140371254A1, “NOVEL TREATMENT OF GEFITINIB-RESISTANT NON-SMALL-CELL LUNG CANCER” (Macau University of Science and Technology, priority 2013, published 2014).
At least one structure is not confirmed: it was looked up by name or label, or the drawing left a doubt.

How the values were obtained:
Format in all cases: cell-based, human
Bcl-xl = assay: Western blot analysis of the protein level of Bcl-xl; settings: H1975, different dosages, 24 hours
Bax = assay: Western blot analysis of the protein level of Bax; settings: H1975, different dosages, 24 hours
H1975 cells = assay: Detection of ROS generation by DCFDA staining; settings: H1975, 1.25 μM, 30 minutes
Bcl-2 = assay: Western blot analysis of the protein level of Bcl-2; settings: H1975, different dosages, 24 hours
[1] = test system: H1975 (EGFR^L858R+T790M) cells; assay: Apoptosis by Annexin V/PI staining with flow cytometry; settings: H1975, 1.25 μM, 24 hrs
Description: Annexin V/PI staining is used to detect early and late stages of apoptosis. According to the manufacturer's protocol (BD Pharmingen), 5×10^5 cells of the treated and control groups were harvested, washed, and double-stained with Annexin V/PI for 15 min at room temperature in dark. Then apoptotic cells were quantitatively counted by a flow cytometer (BD FACSAria III). Early stage of apoptotic cells were stained with Annexin V-positive and PI-negative, while the late stage of apoptotic cells were stained with Annexin V-positive and PI-positive.
Example 6 further studies if the sanguinarine-induced apoptosis in H1975 (EGFR^L858R+T790M) is in caspases-dependent manner H1975 cells were treated with 1.25 μM sanguinarine and 1.25 μM sanguinarine together with 50 μM pan-caspase inhibitor for 24 hrs.

EGFR = assay: Western blot analysis of the protein level of EGFR; settings: different concentrations for 24 hrs; 1.25 μM for 0-24 hrs
Description: Cells were lysed in RIPA lysis buffer with protease and phosphatase inhibitors added for total whole cell protein extraction. The concentration of the total protein extract was determined by Bio-Rad DCTM protein assay kit (Bio-Rad). Then samples were loaded and separated onto a 10% SDS-PAGE gel and then the separated proteins were transferred to a Nitrocellulose (NC) membrane. Membranes were blocked with 5% milk without fat in TBST for 1 hour at room temperature. Primary antibodies (1:1000 dilutions for Cell Signaling antibodies; 1:500 dilutions for Santa Cruz antibodies) were added and incubated overnight at 4° C. On the other day, membrane was washed by TBST for three times (5 mins/wash), while secondary fluorescent antibody (1:10000 dilutions) was added to membrane and incubated at room temperature for 1 hr. Actin was used as loading control and for normalization. The signal intensity of the membranes was detected by Odessy (LI-COR).
In Example 3, the protein level of EGFR after sanguinarine treatment with difference dosage and duration was analyzed.

## C[n+]1cc2c3c(ccc2c2ccc4cc5c(cc4c21)OCO5)OCO3 [sanguinarine]
Bcl-xl
  expression of Bcl-xl: remarkably suppress
Bax
  expression of Bax: slightly up-regulate
H1975 cells
  ROS accumulation (ROS intensity): greatly accumulated
Bcl-2
  expression of Bcl-2: remarkably suppress
[1]
  induction of apoptosis: significant induction of apoptosis
EGFR
  EGFR degradation (protein level of EGFR): dose-dependent and time-dependent manner
